From patent publication JP2007300927A
No constants are given. Whether binding was seen depends on the method and setting. Some results given as binding are weak or reduced against the parent protein; the word gives no strength.

Protein sequences, listed by entry. Tags and fused reporters are not part of them. Lines headed by an entry give the natural chain unless they say otherwise; changes in a name come on top.
UniProt P51654: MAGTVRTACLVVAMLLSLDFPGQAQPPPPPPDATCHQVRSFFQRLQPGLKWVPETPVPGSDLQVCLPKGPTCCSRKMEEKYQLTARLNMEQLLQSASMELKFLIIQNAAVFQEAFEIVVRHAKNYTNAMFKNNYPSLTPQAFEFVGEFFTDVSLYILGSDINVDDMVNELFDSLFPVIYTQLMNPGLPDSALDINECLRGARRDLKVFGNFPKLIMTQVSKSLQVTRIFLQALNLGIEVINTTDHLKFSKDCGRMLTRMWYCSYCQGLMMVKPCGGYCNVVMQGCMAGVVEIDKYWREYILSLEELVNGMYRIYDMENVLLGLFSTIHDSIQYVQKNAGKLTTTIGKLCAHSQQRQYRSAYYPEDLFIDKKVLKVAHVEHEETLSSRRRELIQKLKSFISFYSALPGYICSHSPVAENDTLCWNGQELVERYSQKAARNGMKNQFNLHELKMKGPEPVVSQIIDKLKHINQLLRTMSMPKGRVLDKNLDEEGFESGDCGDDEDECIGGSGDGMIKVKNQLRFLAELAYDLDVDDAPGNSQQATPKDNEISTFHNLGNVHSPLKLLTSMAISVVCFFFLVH

Legend:
分泌型GPC3 (human) [1] = molecular target: 分泌型GPC3 (human) (UniProt P51654); experiment: sandwich ELISA on HepG2 culture supernatant (Fig. 4 legend)
分泌型GPC3 (human) [2] = molecular target: 分泌型GPC3 (human) (UniProt P51654); experiment: sandwich ELISA on HepG2 culture supernatant, pairs of anti-GPC3 antibodies
分泌型GPC3 (human) [3] = molecular target: 分泌型GPC3 (human) (UniProt P51654); experiment: immunoprecipitation from HepG2 culture supernatant
分泌型GPC3 (human) [4] = molecular target: 分泌型GPC3 (human) (UniProt P51654); experiment: immunoprecipitation from HepG2 culture supernatant (Fig. 5 legend)
GC-4 (human) = molecular target: T1, GC-4 (human); experiment: Western blot of GST fusion proteins
T1 sequence: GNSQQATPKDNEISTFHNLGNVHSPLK

Row | Binder | binding (分泌型GPC3 (human) [3]) | other results
1 | M6B1 (antibody, V domains shown) VH: EVQLVESGGDLVKPGGSLKLSCAASGFTFSSYAMSWVRQTPEKRLEWVAAINSNGGTTYYPDTMKDRFTISRDNAKNTLYLQMSSLRSEDSALYYCTRHNGGYENYGWFAYWGQGTLVTVSA VL: DIQMTQSPSSLSASLGGKVTITCKASQDINKNIIWYQHKPGKGPRLLIWYTSTLQPGIPSRFSGSGSGRDYSFSISNLEPEDIATYYCLQYDNLPRTFGGGTKLEIK | binds | binding (分泌型GPC3 (human) [1]): binds; binding (分泌型GPC3 (human) [2]): binds
2 | M10D2 (antibody, V domains shown) VH: QVQLQQPGAELVKPGASVKLSCKASGYTFTSYWMHWVKQRPGQGLEWIGEIDPSDSYTYYNQKFRGKATLTVDKSSNTAYMQLSSLTSEDSAVYYCSRSNLGDGHYRFPAFPYWGQGTLVTVSA VL: DIVLTQSPATLSVTPGDRVSLSCRASHSISNFLHWYPQKSHESPRLLIKYASQSISGIPSRFSGNGSGTDFTLSINSVETEDFGMYFCQQSNIWSLTFGAGTKLELK | binds | binding (分泌型GPC3 (human) [4]): binds
3 | L9G11 (antibody, V domains shown) VH: QVQLQQPGAELVKPGASVKLSCKASGYTFTSYWMHWVKQRPGQGLEWIGTIDPSDSETHYNLQFKDTATLTVDKSSSTAYMQLSSLTSEDSAVYYCIRGAFYSSYSYWAWFAYWGQGTLVTVSA VL: DIVLTQSPTSLAVSLGQSVTISCRASESVEYYGTSLMQWYQQKPGQPPKLLIYGASNVESGVPARFSGSGSGTDFSLNIHPVEEDDIAMYFCQQSRKVPYTFGSGTKLEIK | binds | –
4 | M5B9 (antibody, V domains shown) VH: EVQLQQSGTVLARPGASVKMSCKASGYTFTGYWMHWVKQRPGQGLEWIGAIYPGNSDTNYNQKFKGKAKLTAVTSASTAYMELSSLTNEDAAVYHCTRSGDLTGGLAYWGQGTLVTVSA VL: DIVMTQAAFSNPVTLGTSASISCRSSKSLLHSNGITYLYWFLQKPGQSPQLLIYQMSNLASGVPDRFSSSGSGTDFTLRISRVEAEDVGVYYCAQNLELPYTFGSGTKLEIK | binds | –
5 | GC202 (antibody, V domains shown) VH: QVTLKESGPGILQPSQTLSLTCSFSGFSLSTYGMGVGWIRQPSGKGLEWLANIWWHDDKYYNSALKSRLTISKDISNNQVFLKISSVDTADTATYYCAQIAPRYNKYEGFFAFWGQGTLVTVSA VL: DVLMTQTPLSLPVSLGDQASISCRSSQSIVHSNGNTYLEWYLQKPGQSPKLLIYKVSNRFSGVPDRFSGSGSGTDFTLKISRVEAEDLGVYYCFQGSHVPWTFGGGTKLEIK | – | binding (GC-4 (human)): binds
